Source: patent US20240199755A1, “ANTAGONISTS AND AGONISTS OF THE TRANSFERRIN RECEPTOR-2 FOR USE IN THE TREATMENT OF DISEASES OF THE BONE” (Kymab Limited, priority 2018, published 2024)
At least one structure is not confirmed: it was looked up by name or label, or the drawing left a doubt.

Test system: iron overload and bone mass of Tfr2-/- mice
Assay: Iron chelation with deferoxamine in WT and Tfr2-/- mice
Format: in vivo
Conditions: 250 mg/kg deferoxamine daily i.p. for three weeks

## CC(=O)N(O)CCCCCNC(=O)CCC(=O)N(O)CCCCCNC(=O)CCC(=O)N(O)CCCCCN [deferoxamine]
  Bone mass (BV/TV): remained elevated
  Iron depletion (liver iron content): successful iron depletion
